{
  "source": "the supplement of paper PMC8846439",
  "note": "Structures can show the parent of a compound that is named as a salt. This is one part of the list. Single values are uncertain, as repeats are few or missing.",
  "data": [
    {"test_system": "Trypanosoma brucei brucei bloodstream form L262P (kDNA-independent)", "experiment": "viability Z-score (nuclei count per well, median-polish normalised, relative to plate distribution); higher = more viable parasites (negative = growth inhibition)", "conditions": "4 days; compound concentration: 10 µM (some Prestwick/PKE rows may be 1 µM / not distinguished)", "values": [
      {"smiles": "O=C4C1=C([S]/C(=C1/C)C(=O)N2CCN(CC2)C3=CC([Cl])=CC=C3)N=CN4CC(=O)NC=5C=C(C=CC=5)C([F])([F])[F]", "viability Z-score": -1.82},
      {"smiles": "CC(C)(C)CC(C)(C)c1ccc(OCCOCC[N+](C)(C)Cc2ccccc2)cc1", "note": "[Benzethonium chloride]", "viability Z-score": -2.56},
      {"smiles": "COCCCC/C(=N\\OCCN)c1ccc(C(F)(F)F)cc1", "note": "[Fluvoxamine maleate]", "viability Z-score": -3.81},
      {"smiles": "O=C(N[C@]([H])(CC=1C=CC=CC=1)C(=O)NCC/C2=C/C=CC=C2)[C@@]3([H])CC[C@@](C)([H])CC3", "viability Z-score": -2.62},
      {"smiles": "Cc1ccc(C(=O)c2cc(/C=C/C(=O)NO)n(C)c2)cc1", "viability Z-score": -3.85},
      {"smiles": "[Cl]C=3/C=C(/C[S]C=1OC(=NN=1)C2=CC(C)=CC=C2)C=CC=3[Cl]", "viability Z-score": -5.77},
      {"smiles": "CCCCOc1ccc(C(=O)CCN2CCCCC2)cc1", "note": "[Dyclonine hydrochloride]", "viability Z-score": -2.48},
      {"smiles": "O=C1OC(CN2CCOCC2)CN1/N=C/c1ccc([N+](=O)[O-])o1", "note": "(configuration not stated) [Furaltadone hydrochloride]", "viability Z-score": -3.14},
      {"smiles": "Cc1ccccc1Cn1cnc2ccccc21", "viability Z-score": -1.4},
      {"smiles": "[S]=C(NCC=C)N2CCC=1[S]C=CC=1[C@]2([H])C3=C/C=C(/[Cl])C=C3", "viability Z-score": -3.18},
      {"smiles": "CCN(CC)CC(=O)N(CC(=O)Nc1c(C)cc(C)cc1C)C1CCCCC1", "viability Z-score": -5.61},
      {"smiles": "C/C1=C/C(=C/C=C1/OC)C=2N=C([S]C=2)C=3/C=C(/OC)C(=CC=3)OC", "viability Z-score": -2.71},
      {"smiles": "c1ccc2sc(N3CCOCC3)nc2c1", "viability Z-score": -3.97},
      {"smiles": "O[C@]1(CCN(CCC1)C=2N=C(C(=CN=2)C=3O/N=C(/C)C=3)C=4OC=CC=4)C5=NC=CN5C", "viability Z-score": -3.75},
      {"smiles": "CC(=O)Nc1ccccc1OCCN(Cc1ccccc1)C(=O)c1ccc(Cl)cc1", "viability Z-score": -6.73},
      {"smiles": "C/C(=N\\OCC(=O)NNC(=O)COc1cc(C)c(Cl)cc1C(C)C)c1cccs1", "viability Z-score": -3.05},
      {"smiles": "O=C(CN2C=1C=CC=CC=1N3CCCN=C23)C4=C/C=C(/[Br])C=C4", "viability Z-score": -2.95},
      {"smiles": "Cc1cc(C)c(S(=O)(=O)NC[C@H]2CC[C@H](C(=O)NCCN3CCOCC3)CC2)c(C)c1", "viability Z-score": -3.46},
      {"smiles": "O=[S](=O)(C1=CC(=C/C=C1/OC)C2=NN=NN2CC)N3CCCCC3", "viability Z-score": -4.89},
      {"smiles": "COc1ccc(N2CCN([C@@H](CNS(C)(=O)=O)c3cccnc3)CC2)cc1", "viability Z-score": -3.65},
      {"smiles": "CC1=C(C#N)[C@@H](c2cccc([N+](=O)[O-])c2)C2=C(N1)c1ccccc1S2(=O)=O", "viability Z-score": -1.64},
      {"smiles": "O=C(C=1/C=C(/[Cl])C=CC=1N[C@]([H])(CC(=O)C=2C=CC=CC=2)C(=O)O)C=3C=CC=CC=3", "viability Z-score": -5.27},
      {"smiles": "O=C(N[C@@]([H])(C/C1=C/NC=2C=CC=CC1=2)C(=O)OC)C=3[S]C=CC=3", "viability Z-score": -3.51},
      {"smiles": "CCN1CCC[C@H]1CNC(=O)c1c(O)c(Cl)cc(Cl)c1OC", "note": "[Raclopride]", "viability Z-score": -1.82},
      {"smiles": "Cc1ccc2c(c1)/C(=C/C(=O)c1ccc(Br)s1)C(=O)N2", "viability Z-score": -6.94},
      {"smiles": "[F]C([F])([F])C1=NC(=N/C=C1/C2=N/N=NN2/C3=C/C=C(/[F])C=C3)C=4[S]C=CC=4", "viability Z-score": -2.78},
      {"smiles": "CSCC[C@@H](NS(=O)(=O)c1cccs1)C(=O)N1CCCCC1", "viability Z-score": -2.87},
      {"smiles": "O=[P](/C1=C/C=CC=C1)(C2=CC=CC=C2)[C@]([H])(N=CC=3[S]C=CC=3)C=4C=CC=CC=4", "viability Z-score": -2.13},
      {"smiles": "COc1cc2c(cc1OC)[C@@]1(C)N(CC2)C(=O)OC1(C)C", "viability Z-score": -1.81},
      {"smiles": "O=C(N[C@]([H])(C=2C=CC1=CC=CN=C1C=2O)C=3OC=CC=3)C/C4=C/C=CC=C4", "viability Z-score": -2.92},
      {"smiles": "C/N=c1/[nH]/c(=N\\c2ccc(S(N)(=O)=O)cc2)onc1N", "viability Z-score": -5.32},
      {"smiles": "CCOC(=O)N1CCN(C(=O)C(=O)NN)CC1", "viability Z-score": -6.11},
      {"smiles": "CNC1(C)C(=O)c2ccccc2C1=O", "viability Z-score": -1.73},
      {"smiles": "[C@]12([C@@](C(C[C@]1([C@@]1(/C=C(\\C=3\\[C@@]([C@]1(CC2)[H])(CCC(/C3)=O)C)/C)[H])[H])=C)(OC(=O)C)C(=O)C)C", "note": "[Melengestrol acetate]", "viability Z-score": -4.74},
      {"smiles": "Nc1nc(CN2CCN(Cc3ccccc3)CC2)nc(N2CCCc3ccccc32)n1", "viability Z-score": -4.78},
      {"smiles": "O[C@@]([H])(CO/C1=C/C=CC=C1)CNCCNC=2N=CC(=CN=2)CCC", "viability Z-score": -3.99},
      {"smiles": "C/C=C/C1=C(C(=O)O)N2C(=O)[C@@H](NC(=O)[C@H](N)c3ccc(O)cc3)[C@H]2SC1", "note": "[Cefprozil]", "viability Z-score": -1.53}
    ]}
  ]
}
